Experimental data taken from article PMC5352758, “Methods for 20S Immunoproteasome and 20S Constitutive Proteasome Determination Based on SPRI Biosensors” (Cellular and Molecular Bioengineering, 2017).

Tested on: 20Sc
Test: Indirect 20Sc determination on PSI-based SPRI biosensor with 20Si blocked by inhibitor
Type: binding, mammalian
Details: for Found 20Sc: compound as blocking solution for 20Si (15 μg mL−1), 20Si 2.8 μg mL−1, ratio 20Sc vs. 20Si 1:1, added 20Sc 2.80 μg mL−1, 95% confidence limits, 12 measurements; for Recovery: compound as blocking solution for 20Si, ratio 20Sc vs. 20Si 1:1, added 20Sc 2.80 μg mL−1

Compound	Found 20Sc [µg/mL]	Recovery [%]
COc1ccc(C[C@H](NC(=O)[C@H](C)NC(=O)CN2CCOCC2)C(=O)N[C@@H](Cc2ccccc2)C(=O)[C@]2(C)CO2)cc1 [ONX 0914, reference compound]	2.55 ± 0.54	91
CC(C)C[C@H](NC(=O)[C@H](CC(C)C)NC(=O)[C@@H](N)Cc1ccccc1)C(=O)O [compound 5, H-Phe-Leu–Leu-OH] (H-Phe-Leu-Leu-OH)	2.93 ± 0.36	105
CC(C)C[C@H](NC(=O)[C@@H](N)CC(C)C)C(=O)N[C@@H](Cc1ccccc1)C(=O)O [compound 8, H-Leu-Leu-Phe-OH] (H-Leu-Leu-Phe-OH)	2.60 ± 0.35	93
CC(C)C[C@H](NC(=O)[C@H](Cc1ccccc1)NC(=O)[C@@H](N)CC(C)C)C(=O)O [compound 10, H-Leu-Phe-Leu-OH] (H-Leu-Phe-Leu-OH)	2.69 ± 0.33	96
CCCC[C@H](NC(=O)[C@H](CC(C)C)NC(=O)[C@@H](N)Cc1ccccc1)C(=O)O [compound 11, H-Phe-Leu-nLeu-OH] (H-Phe-Leu-[Nle]-OH)	2.60 ± 0.53	93

Where a SMILES comes first, the peptide text is derived from it. [ ]: non-standard residue; d: D form. Nle = CCCC[C@H](N)C(=O)O
